These results are taken from paper PMC2894856.

Assay [1] concerns the target T1, endogenous mouse CD40 (mouse (endogenous in CH12.LX)), P27512.
T1 chain: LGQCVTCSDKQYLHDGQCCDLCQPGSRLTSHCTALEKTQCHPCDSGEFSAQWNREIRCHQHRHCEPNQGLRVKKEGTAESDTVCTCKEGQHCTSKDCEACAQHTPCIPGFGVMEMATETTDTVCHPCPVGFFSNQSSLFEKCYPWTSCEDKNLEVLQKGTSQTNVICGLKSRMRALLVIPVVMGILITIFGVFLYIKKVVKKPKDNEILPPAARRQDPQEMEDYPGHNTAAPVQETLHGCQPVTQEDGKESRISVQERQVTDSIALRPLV
As to the kind of experiment: co-IP; activated receptor capture (ARC) of endogenous mouse CD40 with anti-mouse CD40 beads (1C10 on goat anti-rat IgG) from CH12.LX wild type, TRAF2-deficient and TRAF3-deficient cells; Western blot. Conditions: remark: other sources report otherwise.

Assay [2] deals with endogenous mouse CD40 (mouse (endogenous in CH12.LX)) (UniProt P27512). The description is as above.

These are yes or no findings as the source states them, for the method shown. Binding seen in cells or lysates may run through a third protein. Some entries that bind do so weakly or less than the wild type.

B1: TRAF6, P70196 1-530 (protein)
chain: MSLLNCENSCGSSQSSSDCCAAMAASCSAAVKDDSVSGSASTGNLSSSFMEEIQGYDVEFDPPLESKYECPICLMALREAVQTPCGHRFCKACIIKSIRDAGHKCPVDNEILLENQLFPDNFAKREILSLTVKCPNKGCLQKMELRHLEDHQVHCEFALVNCPQCQRPFQKCQVNTHIIEDCPRRQVSCVNCAVSMAYEEKEIHDQSCPLANIICEYCGTILIREQMPNHYDLDCPTAPIPCTFSVFGCHEKMQRNHLARHLQENTQLHMRLLAQAVHNVNLALRPCDAASPSRGCRPEDPNYEETIKQLESRLVRQDHQIRELTAKMETQSMYVGELKRTIRTLEDKVAEMEAQQCNGIYIWKIGNFGMHLKSQEEERPVVIHSPGFYTGRPGYKLCMRLHLQLPTAQRCANYISLFVHTMQGEYDSHLPWPFQGTIRLTILDQSEALIRQNHEEVMDAKPELLAFQRPTIPRNPKGFGYVTFMHLEALRQGTFIKDDTLLVRCEVSTRFDMGGLRKEGFQPRSTDAGV
As for B1, the binding result in assay [1] is given as “binds”.

B2: TRAF3 (protein, UniProt Q60803 1-567)
chain: MESSKKMDAAGTLQPNPPLKLQPDRGAGSVLVPEQGGYKEKFVKTVEDKYKCEKCRLVLCNPKQTECGHRFCESCMAALLSSSSPKCTACQESIIKDKVFKDNCCKREILALQVYCRNEGRGCAEQLTLGHLLVHLKNECQFEELPCLRADCKEKVLRKDLRDHVEKACKYREATCSHCKSQVPMIKLQKHEDTDCPCVVVSCPHKCSVQTLLRSELSAHLSECVNAPSTCSFKRYGCVFQGTNQQIKAHEASSAVQHVNLLKEWSNSLEKKVSLLQNESVEKNKSIQSLHNQICSFEIEIERQKEMLRNNESKILHLQRVIDSQAEKLKELDKEIRPFRQNWEEADSMKSSVESLQNRVTELESVDKSAGQAARNTGLLESQLSRHDQMLSVHDIRLADMDLRFQVLETASYNGVLIWKIRDYKRRKQEAVMGKTLSLYSQPFYTGYFGYKMCARVYLNGDGMGKGTHLSLFFVIMRGEYDALLPWPFKQKVTLMLMDQGSSRRHLGDAFKPDPNSSSFKKPTGEMNIASGCPVFVAQTVLENGTYIKDDTIFIKVIVDTSDLPDP
Consider B2, for which the binding result in assay [2] is recorded as “binds”.
